No constants are given. Whether binding was seen depends on the method and setting. Binding seen in cells or lysates may run through a third protein. Some binding calls cover weakened binding; strength is not graded here. For part of these data: Where a sequence is shown, tags or fusion partners need not be part of it.
Tests used:
[1] = target: HA-STING (exogenously expressed STING) (UniProt Q86WV6); test: co-IP; exogenously expressed tagged proteins in transfected cells; IP lysis buffer, 1 ug antibody overnight at 4 °C, protein A/G beads 2 h, western blot; in Fig. 4F with or without overexpressed HA-NSDHL
[2] = target: GST-STING fusion protein (UniProt Q86WV6); test: pull-down; 10 ug GST-STING fusion protein added to cholangiocarcinoma cell lysate supernatant overnight at 4 °C, glutathione Sepharose 4B beads 4 h, washed in 50 mM Tris-HCl pH 8.0, 150 mM NaCl, 1 % NP-40; western blot; only the target purified
[3] = target: endogenously expressed STING (human (endogenous in cholangiocarcinoma cells)) (UniProt Q86WV6); test: co-IP; endogenous proteins in cholangiocarcinoma cell lysate; anti-STING antibody (stated for Fig. 3D and 4E), protein A/G beads, western blot

The chains behind the UniProt entries cited, without tags or fusion partners.
UniProt Q86WV6: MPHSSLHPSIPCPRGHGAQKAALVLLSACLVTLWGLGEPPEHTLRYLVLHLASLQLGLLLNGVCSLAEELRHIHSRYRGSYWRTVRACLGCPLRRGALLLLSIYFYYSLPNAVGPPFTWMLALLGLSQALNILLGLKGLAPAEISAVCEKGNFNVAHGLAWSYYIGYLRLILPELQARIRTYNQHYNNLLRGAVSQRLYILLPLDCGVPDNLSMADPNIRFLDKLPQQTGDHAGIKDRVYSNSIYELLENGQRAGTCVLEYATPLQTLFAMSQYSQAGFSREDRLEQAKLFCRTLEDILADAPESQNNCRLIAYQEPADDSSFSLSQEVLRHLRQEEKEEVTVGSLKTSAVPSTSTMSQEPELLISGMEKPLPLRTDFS

| Binder | binding [1] | binding [2] | binding [3] |
| --- | --- | --- | --- |
| Flag-NSDHL (exogenously expressed NSDHL) (enzyme, UniProt Q15738 1-373) MEPAVSEPMRDQVARTHLTEDTPKVNADIEKVNQNQAKRCTVIGGSGFLGQHMVEQLLARGYAVNVFDIQQGFDNPQVRFFLGDLCSRQDLYPALKGVNTVFHCASPPPSSNNKELFYRVNYIGTKNVIETCKEAGVQKLILTSSASVIFEGVDIKNGTEDLPYAMKPIDYYTETKILQERAVLGANDPEKNFLTTAIRPHGIFGPRDPQLVPILIEAARNGKMKFVIGNGKNLVDFTFVENVVHGHILAAEQLSRDSTLGGKAFHITNDEPIPFWTFLSRILTGLNYEAPKYHIPYWVAYYLALLLSLLVMVISPVIQLQPTFTPMRVALAGTFHYYSCERAKKAMGYQPLVTMDDAMERTVQSFRHLRRVK | binds |  |  |
| endogenously expressed NSDHL (enzyme, UniProt Q15738 1-373) MEPAVSEPMRDQVARTHLTEDTPKVNADIEKVNQNQAKRCTVIGGSGFLGQHMVEQLLARGYAVNVFDIQQGFDNPQVRFFLGDLCSRQDLYPALKGVNTVFHCASPPPSSNNKELFYRVNYIGTKNVIETCKEAGVQKLILTSSASVIFEGVDIKNGTEDLPYAMKPIDYYTETKILQERAVLGANDPEKNFLTTAIRPHGIFGPRDPQLVPILIEAARNGKMKFVIGNGKNLVDFTFVENVVHGHILAAEQLSRDSTLGGKAFHITNDEPIPFWTFLSRILTGLNYEAPKYHIPYWVAYYLALLLSLLVMVISPVIQLQPTFTPMRVALAGTFHYYSCERAKKAMGYQPLVTMDDAMERTVQSFRHLRRVK |  | binds | binds |

— article PMC11407059
